Drawing on patent publication US20190112385A1 (NBE THERAPEUTICS, published 2019), this text covers binding for 4 molecules.

The chains behind the UniProt entries cited, without tags or fusion partners. Where a name states a change or a piece, a line headed by the entry shows the natural chain unless it says otherwise. A line that says so, or that is headed by a name, gives the form on record, which may keep a tag or linker.
StrepII-tagged Mesothelin (human mesothelin isoform 2, NP_037536, with C-terminal strepII-tag) (Q13421, form named): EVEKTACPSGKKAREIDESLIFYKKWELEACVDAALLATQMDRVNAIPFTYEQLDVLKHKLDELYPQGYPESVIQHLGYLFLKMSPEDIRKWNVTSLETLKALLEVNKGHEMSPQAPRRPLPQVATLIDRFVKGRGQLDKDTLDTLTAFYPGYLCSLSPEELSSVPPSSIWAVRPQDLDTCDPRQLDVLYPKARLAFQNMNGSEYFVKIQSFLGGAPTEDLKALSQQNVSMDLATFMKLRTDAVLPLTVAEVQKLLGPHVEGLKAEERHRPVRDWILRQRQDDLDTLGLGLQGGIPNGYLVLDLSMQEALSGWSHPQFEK

The target in test [1] is StrepII-tagged Mesothelin (human mesothelin isoform 2, NP_037536, with C-terminal strepII-tag) (human) (UniProt Q13421). In words: SPR (Biacore T200), mAb from 293T supernatant captured by anti-human Fc-gamma antibody, Mesothelin in 1:2 dilutions from 10 nM [ctd]. For orientation: Surface plasmon resonance follows binding to a sensor surface in real time, without labels.
The target is the same in test [2]. The experiment in a line: ELISA of L11 clone supernatant on plates coated with a limiting concentration of Mesothelin, in parallel with a sandwich ELISA for IgG; values calculated from the MN standard curve [ctd) D].
The target is the same in test [3]. The experiment in a line: SPR isoaffinity plot (ka against kd); mAb from 293T supernatant captured by anti-human Fc-gamma IgG, Mesothelin-strep as analyte.
For test [4] the target is unchanged. In words: ELISA on plates coated with a limiting concentration of Mesothelin, in parallel with a sandwich ELISA for IgG; parental mAb MN as standard [ctd) D]. Background: In an ELISA, binding on a coated surface is turned into a signal by an enzyme label.
Test [5] shares this target. In words: flow cytometry, surface-displayed IgG on L11 cells stained with strep-tagged antigen. For orientation: In flow cytometry, cells or beads pass a laser one at a time.
Test [6] has the same target. The experiment in a line: SPR (Biacore T200), mAb from 293T supernatant captured by anti-human Fc-gamma antibody, Mesothelin in 1:2 dilutions from 10 nM.

No constants are given. Whether binding was seen depends on the method and setting. Some binding calls cover weakened binding; strength is not graded here.

B1: huMN3-1 (antibody, V domains shown)
VH: QVQLQQSGAELVKPGASMKLSCKASGYTFTSYWMHWVRQAPGQGLEWIGAIHPNSDNTIYYQKFKSRVTLTVDKSISTAYMQLSSLTSEDTAVYYCAIIITPVVPKFDYWGQGTTVTVSS
VL: DIQMTQSPSFLSASVGDRVTITCRASHDVGTSLAWYQQKPGQAPKLLIYWASTLQTGVPSRFSGSGSGTEFTLTISSLQPEDFATYYCQQYSSYPLTFGPGTTVDMK
As for B1, the binding entry in test [1], in test [2] and in test [3] was “binds” each time.

B2: parental anti-Mesothelin mouse mAb MN, produced as chimeric full-length IgG1 antibody with human constant regions (antibody, V domains shown)
VH: QVQLQQPGAELVKPGASMKLSCKASGYTFTSYWMHWVKQRPGQGLEWIGMIHPNSDNTIYYEKFKSKATLTVDKSSSTAYMQLSSLTSEDSAVYYCAIIITPVVPKFDYWGQGTTLTVSS
VL: DIVMTQSHQFMSTSVGDRVSVTCKASHDVGTSVAWYQQKPGQSPKLLIYWASTRHTGVPDRFTGSGSGTDFTLTISNVQSEDLADYFCQQYSSYPLTFGAGTKLELK
notes: also called VH-MN (parental mouse); parental chimeric antibody
As to B2, the binding result in test [3], in test [4], in test [5] and in test [6] was “binds” throughout.

B3: huMN5-3 (antibody, V domains shown)
VH: QVQLQQSGAELVKPGASLKLSCKASGYTFTSYWMHWVRQAPGQGLEWIGAIHPNSDNTIYYQKFKSRFTITVDKSTSTAYMQLSSLTSEDTAVYYCAIIITPVVPKFDYWGQGTTVTVSS
VL: DIVMTQSPDSLAVSLGERATITCKSSHDVGTSLAWYQQKPGQPPKLLIYWASTRESGVPDRFSGSGSGTDFTLTISSLQAEDVAVYYCQQYSSYPLTFGQGTKLEIK
notes: No sheet says in words that huMN5b is huMN5-3
For B3, the binding result in test [3] and in test [6] was “binds” each time.

B4: huMN5-2 (antibody, V domains shown)
VH: QVQLQQSGAELVKPGASLKLSCKASGYTFTSYWMHWVRQAPGQGLEWIGAIHPNSDNTIYYQKFKSRFTITVDKSTSTAYMQLSSLTSEDTAVYYCAIIITPVVPKFDYWGQGTTVTVSS
VL: DIVMTQSSSFMSASVGDRVSITCKASHDVGTSLAWYQQKPGQSPKLLIYWASTRQTGVPDRFSGSGSGTDFTLTISSVQSEDVATYFCQQYSSYPLTFGQGTKLEIK
notes: No sheet says in words that huMN5a is huMN5-2
As for B4, the binding result in test [1] and in test [3] was “binds” throughout.
